# Reference: patent US20100042137A1, “ACUPUNCTURE AND ACUPRESSURE THERAPIES” (priority 2008, published 2010)
# Key:
# [1] = system: human patients; test: Treatment with epinephrine or Restylane at specific influential points, also in combination with magnets; pain level x/10; assay type: in vivo; conditions: same patient
# [2] = system: Patients with Arthritis; test: Treatment of patients with arthritis by injection at or near acupuncture points; pain level x/10; assay type: in vivo, human; conditions: same patient as E5
# Description: Treatment of Patients with Arthritis
# (i) A patient presented with a 5/10 pain from severe rheumatoid arthritis.
# (ii) A patient presented with an 8/10 pain from severe rheumatoid arthritis.
# (iii) A patient presented with 8/10 pain from severe rheumatoid arthritis with diffuse joint stiffness, swelling and tenderness.
# (i) A patient presented with a pain level of 10/10 from cervical strain due to seronegative rheumatoid arthritis.
# (ii) A patient presented with a 7.5/10 pain globally from a seronegative arthritis (unspecified).
# A patient presented with a 5/10 pain from bilateral post-traumatic subtalar arthritis.
smiles,measurement,setting,value
CCN(CC)CC(=O)Nc1c(C)cccc1C [lidocaine],remained pain-free at time later,[1],≥ 1 week
same,time remained pain free,[2],2 weeks
